Results are given in words; binding and its absence hold for the method and conditions named.

Assay [1] deals with CYRI-B (FAM49B) from Rhincodon typus (whale shark), native protein (Rhincodon typus (whale shark)). Description: native gel or EMSA; 7% native PAGE under non-reducing conditions, Instant Blue stain; single band; both purified.
Assay [2] has the same target. Description: SEC; analytical SEC, Superdex 75 10/300 GL, room temperature, 20 mM Tris pH 7.5, 150 mM NaCl, 5 mM beta-mercaptoethanol; 0.5 mg native or 0.3 mg SeMet protein in 100 µl; single peak close to 30 kDa; both purified.
Assay [3] deals with Selenomethionine (SeMet)-derivatized CYRI-B (FAM49B) from Rhincodon typus (Rhincodon typus (whale shark)). As to the kind of experiment: native gel or EMSA; 7% native PAGE under non-reducing conditions, Instant Blue stain; single band; both purified.
Assay [4] shares this target. Description: SEC; analytical SEC, Superdex 75 10/300 GL, room temperature, 20 mM Tris pH 7.5, 150 mM NaCl, 5 mM beta-mercaptoethanol; 0.5 mg native or 0.3 mg SeMet protein in 100 µl; single peak close to 30 kDa; both purified.

B1: CYRI-B (FAM49B) from Rhincodon typus (whale shark), native protein (protein, UniProt A0A7M4DUF3 1-325)
chain: SMGNLIKVLTRDIDHNASHFFLDFENAQPTEAEREIFNQVNVVLKDAEGILNDLQSYRGAGHEIREAIQHPNDENLQEKAWSAVCPLVGKLKKFYEFSQRLEAALHGLLGALTSTPYSPTQHLEREQALAKQFAEILHFTLRFDELKMTNPAIQNDFSYYRRTLSRMRINNVPAEGENEVNNELANRMSLFYAEATPMLKTLSDATTKFVSDNKSLPIENTTDCLSTMASVCRVMLETPEYRSRFASEETVSFCLRVMVGVIILYDHVHPVGAFAKTSKIDMKGCIKVLKDQPPNSVEGLLNALRYTTKHLNDETTSKQIKTMLQ
Consider B1, for which the figures for the binding result in assay [1] and in assay [2] were “no binding” and “no binding (tested: 0.5 mg in 100 µl applied)”, respectively.

B2: Selenomethionine (SeMet)-derivatized CYRI-B (FAM49B) from Rhincodon typus (protein, UniProt A0A7M4DUF3 1-325)
chain: B1 chain
modifications: selenomethionine (SeMet-derivatized)
As for B2, the binding result is reported as “no binding” in assay [3] and “no binding (tested: 0.3 mg in 100 µl applied)” in assay [4].

(Values after article PMC7543656.)
